PubChem BioAssay AID652259 | Drosophila RNAi Screening Center – 2013

Test: 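Identify new Wingless signalling regulators in fly cells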 (primary screen)
System: Drosophila clone 8 imaginal disc epithelial cells
Reagents: long dsRNA against Drosophila genes
Treatment: pathway stimulated by co-transfected Wingless expression plasmid
Measurement: 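Firefly luciferase from a tcf-site Wingless reporter, measured alongside co-transfected Renilla luciferase that tracks transfection; pathway stimulated by a Wingless plasmid; the firefly-to-Renilla ratio is not deposited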
Scale: firefly reporter light: higher = more Wg reporter light, before normalisation; Renilla control light: higher = more transfected or surviving cells
Hit rule: 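a knock-down is a candidate when at least two out of four statistical tests show it departing from its plate mean; one test alone signals a weak candidate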
Meaning of the calls: active = candidate regulator (raises or lowers reporter); inactive = not a candidate
In all, the deposit lists about 22,000 reagents; this is an unselected part of those with a known target gene and a result. In the full data, 233 (1.1%) are marked active. 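Light values are raw, unnormalised plate reads; the ratio scores behind the reporter calls were not deposited.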 Not given: the amount of reagent, the time to read-out, the dose of the treatment.

| target gene | dsRNA | reporter change call, replicate 1 | firefly reporter light, replicate 1 | firefly reporter light, replicate 2 | Renilla control light, replicate 1 | Renilla control light, replicate 2 | outcome |
| --- | --- | --- | --- | --- | --- | --- | --- |
| Cpr62Bb (Cuticular protein 62Bb) | DRSC08404 | – | 5755 | – | 2289 | – | inactive |
| mRpL38 (mitochondrial ribosomal protein L38) | DRSC19734 | – | 15223 | – | 6865 | – | inactive |
| Mical (Molecule interacting with CasL) | DRSC14349 | – | 9009 | – | 1579 | – | inactive |
| Mical (Molecule interacting with CasL) | DRSC14351 | – | 13716 | – | 2547 | – | inactive |
| Mical (Molecule interacting with CasL) | DRSC15365 | – | 11892 | – | 2234 | – | inactive |
| Mical (Molecule interacting with CasL) | DRSC15366 | – | 10243 | – | 1924 | – | inactive |
| dpr13 (defective proboscis extension response 13) | DRSC06160 | – | 5728 | – | 1925 | – | inactive |
| dpr13 (defective proboscis extension response 13) | DRSC06464 | – | 6352 | – | 2210 | – | inactive |
| GluRIA (Glutamate receptor IA) | DRSC11176 | – | 1529 | 10915 | 1108 | 4130 | inactive |
| Arp53D (Actin-related protein 53D) | DRSC05923 | – | 6514 | – | 2358 | – | inactive |
| BomS4 (Bomanin Short 4) | DRSC22509 | – | 7.89e5 | 8.42e5 | 3.41e5 | 2.74e5 | inactive |
| Sry-delta (Serendipity delta) | DRSC16869 | – | 2316 | 6680 | 1065 | 1799 | inactive |
| Lon (Lon protease) | DRSC11049 | – | 6406 | – | 2219 | – | inactive |
| chn (charlatan) | DRSC06086 | – | 14041 | – | 3190 | – | inactive |
| CG42808 | DRSC06370 | – | 9777 | – | 4501 | – | inactive |
| Pngl (PNGase-like) | DRSC04914 | – | 3686 | 9027 | 1315 | 3123 | inactive |
| CG2680 | DRSC18466 | – | 20663 | – | 13620 | – | inactive |
| CG9590 | DRSC16506 | – | 2409 | 7961 | 865 | 2058 | inactive |
| TwdlM (TweedleM) | DRSC15810 | – | 8183 | – | 3894 | – | inactive |
| 5PtaseI (Inositol polyphosphate-5-phosphatase type I) | DRSC16269 | – | 2464 | 4970 | 1265 | 1546 | inactive |
| 5PtaseI (Inositol polyphosphate-5-phosphatase type I) | DRSC22090 | – | 6.62e5 | 6.73e5 | 2.81e5 | 2.94e5 | inactive |
| CG17739 | DRSC06689 | – | 10115 | – | 2948 | – | inactive |
| CG30378 | DRSC05071 | – | 11836 | – | 6754 | – | inactive |
| Hexo1 (Hexosaminidase 1) | DRSC08663 | – | 8858 | – | 3697 | – | inactive |
| vih (vihar) | DRSC09778 | – | 8074 | – | 2043 | – | inactive |
| Gal (beta galactosidase) | DRSC03134 | – | 1485 | 6357 | 680 | 1936 | inactive |
| Cpr65Au (Cuticular protein 65Au) | DRSC22738 | – | 3.97e5 | 3.80e5 | 1.62e5 | 92402 | inactive |
| ATPsynGL (ATP synthase, subunit G-like) | DRSC03027 | – | 2976 | 8352 | 1211 | 4147 | inactive |
| CG5188 | DRSC02826 | – | 2364 | 6881 | 802 | 2240 | inactive |
| CG34159 | DRSC02885 | – | 2119 | 6423 | 485 | 1684 | inactive |
| CG3662 | DRSC00626 | – | 6967 | – | 3076 | – | inactive |
| Aps (Aps pyrophosphatase) | DRSC10629 | – | 12054 | – | 4464 | – | inactive |
| Gpdh2 (Glycerol-3-phosphate dehydrogenase 2) | DRSC04346 | – | 4364 | 9747 | 1042 | 3200 | inactive |
| pn (prune) | DRSC18822 | – | 1830 | 4361 | 1001 | 1701 | inactive |
| CG34251 | DRSC09498 | – | 3573 | – | 1004 | – | inactive |
| CG34251 | DRSC09500 | – | 2934 | – | 1368 | – | inactive |
| CG32855 | DRSC13131 | – | 1988 | – | 928 | – | inactive |
| odd (odd skipped) | DRSC00832 | Wg reporter activity raised | 4179 | 7610 | 301 | 272 | active |
| CG31344 | DRSC16069 | – | 15792 | – | 3161 | – | inactive |
| CG14500 | DRSC06471 | – | 7312 | – | 2205 | – | inactive |
| ppk28 (pickpocket 28) | DRSC19919 | – | 17085 | – | 7591 | – | inactive |
| Arpc5 (Actin-related protein 2/3 complex, subunit 5) | DRSC00730 | – | 2073 | 6666 | 887 | 1987 | inactive |
| ND-30 (NADH dehydrogenase (ubiquinone) 30 kDa subunit) | DRSC08243 | – | 7196 | – | 2874 | – | inactive |
| CG13526 | DRSC04168 | – | 2369 | 8836 | 824 | 3355 | inactive |
| CG14780 | DRSC18566 | – | 13592 | – | 13482 | – | inactive |
| CG12498 | DRSC18635 | – | 14320 | – | 9156 | – | inactive |
| CG5174 | DRSC06920 | – | 21781 | – | 5392 | – | inactive |
| Kmn1 (kinetochore Mis12-Ndc80 network component 1) | DRSC19666 | – | 19258 | – | 9643 | – | inactive |
| mah (mahogany) | DRSC14645 | – | 26332 | – | 19313 | – | inactive |
| CG14417 | DRSC18638 | – | 16995 | – | 12020 | – | inactive |
| gom (gomdanji) | DRSC04690 | – | 1899 | 8896 | 612 | 2797 | inactive |
| AsnS (Asparagine synthetase) | DRSC11468 | – | 3075 | – | 1540 | – | inactive |
| Rpn13 (Regulatory particle non-ATPase 13) | DRSC06379 | – | 5616 | – | 1585 | – | inactive |
| Skel (Skeletor) | DRSC14905 | – | 10312 | – | 2096 | – | inactive |
| Skel (Skeletor) | DRSC14906 | – | 5228 | – | 1552 | – | inactive |
| CG2964 | DRSC00554 | – | 3121 | 8092 | 1170 | 2784 | inactive |
| Marf1 (Meiosis regulator and mRNA stability factor 1) | DRSC03747 | – | 2337 | 6019 | 823 | 2755 | inactive |
| Marf1 (Meiosis regulator and mRNA stability factor 1) | DRSC03774 | – | 17173 | – | 8170 | – | inactive |
| Gas8 (Growth arrest specific protein 8) | DRSC22884 | – | 8.94e5 | 6.62e5 | 3.05e5 | 68 | inactive |
| phr (photorepair) | DRSC07662 | – | 1992 | 5517 | 192 | 2593 | inactive |
| Ask1 (Apoptotic signal-regulating kinase 1) | DRSC16789 | – | 21479 | – | 4795 | – | inactive |
| Ask1 (Apoptotic signal-regulating kinase 1) | DRSC21697 | – | 7.52e5 | 8.60e5 | 5.12e5 | 3.58e5 | inactive |
| Gr33a (Gustatory receptor 33a) | DRSC02589 | – | 1351 | 4071 | 800 | 1916 | inactive |
| CG1635 | DRSC15131 | – | 1984 | 6722 | 818 | 2112 | inactive |
| Hip14 (Huntingtin-interacting protein 14) | DRSC10570 | – | 6977 | – | 2618 | – | inactive |
| Nsf2 (N-ethylmaleimide-sensitive factor 2) | DRSC22104 | – | 8.24e5 | 8.37e5 | 2.87e5 | 2.93e5 | inactive |
| CG12133 | DRSC06108 | – | 2164 | 5868 | 498 | 1980 | inactive |
| CG33253 | DRSC19547 | – | 32624 | – | 12950 | – | inactive |
| CG33253 | DRSC20053 | – | 27699 | 7.00e5 | 1257 | 3.11e5 | inactive |
| CG2258 | DRSC18222 | – | 1830 | 4151 | 992 | 1193 | inactive |
| NLaz (Neural Lazarillo) | DRSC21521 | – | 8.16e5 | 8.40e5 | 3.77e5 | 3.58e5 | inactive |
| CG3862 | DRSC00631 | – | 18409 | – | 8176 | – | inactive |
| Dlg5 (Discs large 5) | DRSC02964 | – | 3525 | – | 1829 | – | inactive |
